Source: PubChem BioAssay AID602196 (INSERM, 2012)
Shown is an unselected part of about 23,000 reagents. 455 of them (2%) were called active. 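Active includes both protection and sensitisation; some change values fall well beyond the stated -50 to +50 range.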 No sequences are given here. Not stated in the record: the amount of reagent.

Purpose: 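Modifiers of cisplatin sensitivity in A549 cells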
Cell system: human A549 lung cancer cells
Reagent: siRNA pair against human genes
Duration: 48 h transfection before cisplatin; time from cisplatin to read-out not stated
Treatment: cisplatin at a dose killing half of control-siRNA cells; exact dose and duration not given
Measurement: 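Cisplatin cell death as a shift from the 50% death seen with control siRNA; siRNAs toxic or growth-blocking alone scored 0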
Scale: two-siRNA summed score (-2 to +2): higher = both siRNAs protect from cisplatin killing; -2 means both sensitise; mean protection from cisplatin (shift in death) and protection from cisplatin (shift in death), siRNA C and protection from cisplatin (shift in death), siRNA D: higher = protection from cisplatin killing
Active means: 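Each siRNA scores 0 if harmful alone by LDH or WST-1, otherwise +1 if it reduces and -1 if it increases cisplatin killing; a gene is active when both siRNAs agree (sum +2 or -2)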
Meaning of the calls: active = both siRNAs shift cisplatin killing the same way; inactive = no consistent shift, or siRNA harmful alone

no.	target	PubChem SID	two-siRNA summed score (-2 to +2)	mean protection from cisplatin (shift in death) (%)	protection from cisplatin (shift in death), siRNA C (%)	protection from cisplatin (shift in death), siRNA D (%)	Outcome
1	UBA6 (ubiquitin like modifier activating enzyme 6)	SID131501307	-1	-10.6	-15.7	-5.5	inactive
2	TIAM1 (TIAM Rac1 associated GEF 1)	SID131511352	0	4.3	0.7	7.8	inactive
3	ANGPTL2 (angiopoietin like 2)	SID131513625	0	6.8	6.5	7.2	inactive
4	SYAP1 (synapse associated protein 1)	SID131503486	0	-9.7	5.9	-25.2	inactive
5	GAL3ST2 (galactose-3-O-sulfotransferase 2)	SID131505530	0	-3	-2.9	-3.1	inactive
6	HOXA6 (homeobox A6)	SID131509967	0	2.7	-6.8	12.3	inactive
7	LOC388474	SID131517466	0	13.5	8.9	18.2	inactive
8	EEIG1 (estrogen-induced osteoclastogenesis regulator 1)	SID131517041	0	12.3	11.8	12.7	inactive
9	TPR (translocated promoter region, nuclear basket protein)	SID131513538	0	6.7	9.6	3.8	inactive
10	NEIL2 (nei like DNA glycosylase 2)	SID131501635	-1	-8.5	7.7	-24.6	inactive
11	STRN4 (striatin 4)	SID131505631	0	-2.8	-11.2	5.5	inactive
12	ANXA2 (annexin A2)	SID131500645	-1	-18.6	-15.8	-21.4	inactive
13	GPR161 (G protein-coupled receptor 161)	SID131502152	-1	-4.9	-22.4	12.5	inactive
14	CLCN3 (Cl-/H+ antiporter 3)	SID131500383	-2	-16.2	-15.2	-17.3	active
15	LOC440147	SID131520844	1	11.3	5.7	16.9	inactive
16	NUDT10 (nudix hydrolase 10)	SID131507011	0	-0.7	5.3	-6.6	inactive
17	PRECSIT	SID131508473	0	1.1	14.3	-12.1	inactive
18	LILRA2 (leukocyte immunoglobulin like receptor A2)	SID131519069	1	2	9.2	-5.3	inactive
19	CACNA1G-AS1 (CACNA1G antisense RNA 1)	SID131514869	0	8.4	14.8	1.9	inactive
20	HOMEZ (homeobox and leucine zipper encoding)	SID131514042	0	7.3	-1.8	16.4	inactive
21	SMYD5 (SMYD family member 5)	SID131502532	-1	-1.2	7.2	-9.7	inactive
22	CPOX (coproporphyrinogen oxidase)	SID131515481	0	9.2	5.6	12.8	inactive
23	MRPS26 (mitochondrial ribosomal protein S26)	SID131515421	0	9.1	9.7	8.6	inactive
24	RNF138 (ring finger protein 138)	SID131519322	1	4.7	-0.2	9.7	inactive
25	FAM234B (family with sequence similarity 234 member B)	SID131515312	0	9	7.2	10.7	inactive

Continued (3 carried over from the part before).
no.	target	PubChem SID	two-siRNA summed score (-2 to +2)	mean protection from cisplatin (shift in death) (%)	protection from cisplatin (shift in death), siRNA C (%)	protection from cisplatin (shift in death), siRNA D (%)	Outcome
23	MRPS26 (mitochondrial ribosomal protein S26)	SID131515421	0	9.1	9.7	8.6	inactive
24	RNF138 (ring finger protein 138)	SID131519322	1	4.7	-0.2	9.7	inactive
25	FAM234B (family with sequence similarity 234 member B)	SID131515312	0	9	7.2	10.7	inactive
26	PNPLA6 (patatin like domain 6, lysophospholipase)	SID131522583	1	20.1	11.5	28.7	inactive
27	LOC442418	SID131513115	0	6.2	4.3	8.2	inactive
28	MAP3K9 (mitogen-activated protein kinase kinase kinase 9)	SID131521957	1	15.6	23.6	7.6	inactive
29	INPP5E (inositol polyphosphate-5-phosphatase E)	SID131508564	0	1.2	-5.9	8.3	inactive
30	SLC22A14	SID131502645	-1	0.9	25.3	-23.4	inactive
31	LOC392666	SID131505923	0	-2.3	4.7	-9.4	inactive
32	RAB19 (RAB19, member RAS oncogene family)	SID131508941	0	1.6	1.2	2.1	inactive
33	TFF3 (trefoil factor 3)	SID131511013	0	3.9	2.1	5.7	inactive
34	MLH3 (mutL homolog 3)	SID131504183	0	-6.2	-8.6	-3.8	inactive
35	ISCA2 (iron-sulfur cluster assembly 2)	SID131509991	0	2.7	3.4	2.1	inactive
36	LOC400025	SID131505793	0	-2.6	-9.1	3.9	inactive
37	AANAT (aralkylamine N-acetyltransferase)	SID131520924	1	11.5	6.9	16.2	inactive
38	C1QTNF9 (C1q and TNF related 9)	SID131520114	1	8.7	8.2	9.3	inactive
39	PCNX4 (pecanex 4)	SID131509514	0	2.2	1.8	2.7	inactive
40	LOC442690	SID131520466	1	10	12.6	7.4	inactive
41	DHX40 (DEAH-box helicase 40)	SID131513771	0	7	-2.3	16.3	inactive
42	ZNF442 (zinc finger protein 442)	SID131509662	0	2.4	-4.2	8.9	inactive
43	SYNE3 (spectrin repeat containing nuclear envelope family member 3)	SID131504420	0	-5.5	-6.5	-4.4	inactive
44	SYNE3 (spectrin repeat containing nuclear envelope family member 3)	SID131511059	0	3.9	15.6	-7.8	inactive
45	GID8 (GID complex subunit 8 homolog)	SID131513573	0	6.7	6.4	7.1	inactive
46	LOC254938	SID131514166	0	7.5	11	4	inactive
47	NCS1 (neuronal calcium sensor 1)	SID131504682	0	-4.8	-2.5	-7	inactive
48	XYLT2 (xylosyltransferase 2)	SID131519515	1	6	-5	17	inactive
49	PRSS58 (serine protease 58)	SID131521973	1	15.6	29.2	2.1	inactive
50	HERPUD1	SID131515909	0	9.9	12.5	7.3	inactive
51	DRC2 (dynein regulatory complex subunit 2)	SID131522730	1	22.5	24.1	20.8	inactive
52	LPIN2 (lipin 2)	SID131517767	0	14.7	20	9.4	inactive
53	ATP1B3 (ATPase Na+/K+ transporting subunit beta 3)	SID131522228	1	17	4.2	29.8	inactive
54	LOC389139	SID131506813	0	-0.9	-3.9	2	inactive
55	TOR1B (torsin family 1 member B)	SID131521442	1	13.5	8.2	18.8	inactive
56	LINC01623 (long independently transcribed non-coding RNA 1623)	SID131514277	0	7.6	3.2	12.1	inactive
57	KCNH8 (potassium voltage-gated channel subfamily H member 8)	SID131522759	1	23.1	25.1	21.1	inactive
